{"source": "PubChem BioAssay AID504793 | Drosophila RNAi Screening Center, 2011", "test": "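Genes required for cells to halt at G2/M after double-strand DNA breaks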 (primary screen)", "cells": "Drosophila S2R+ cells", "reagents": "long dsRNA against Drosophila genes, about 0.25 µg dsRNA per well", "time to read-out": "4 days of dsRNA, then 4 hours of drug before read-out", "challenge": "doxorubicin 0.5 µM for 4 hours to cause double-strand breaks, in cells also given a low, harmless dose of dsRNA against nbs to sensitise the assay", "measurement": "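Per-well count of mitotic cells stained for phospho-histone H3 after doxorubicin exposure, used as mitotic index; counts are raw and not normalised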", "scale": "mitotic cells: higher = more cells in mitosis, weaker G2 arrest", "active means": "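Genes are called active only when high mitotic counts were reproduced with independent dsRNAs and mitosis was checked for delay without damage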", "calls": "active = confirmed in follow-up tests; inactive = not confirmed", "note": "In all, the deposit lists about 23,000 reagents; this is an unselected part of those that have a named target and a result. Over the whole deposit, 62 (0.27%) got an active call. 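Calls come from follow-up tests whose scores are not deposited, so confirmed genes may have low counts here; counts are not normalised per plate.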 Raw values vary from plate to plate and are shown uncorrected. A number with no mark means an inactive call."}
{"gene": "Tim8", "DRSC id": "DRSC20291", "mitotic cells, replicate 1": 11}
{"gene": "CG9590", "DRSC id": "DRSC16506", "mitotic cells, replicate 1": 6}
{"gene": "BRWD3", "DRSC id": "DRSC15369", "mitotic cells, replicate 1": "31 (active)"}
{"gene": "BRWD3", "DRSC id": "DRSC16032", "mitotic cells, replicate 1": "27 (active)"}
{"gene": "lectin-46Cb", "DRSC id": "DRSC06611", "mitotic cells, replicate 1": 7}
{"gene": "lectin-46Cb", "DRSC id": "DRSC25309", "mitotic cells, replicate 1": 12}

The list goes on, starting with the last 2 of the part before.
{"gene": "lectin-46Cb", "DRSC id": "DRSC06611", "mitotic cells, replicate 1": 7}
{"gene": "lectin-46Cb", "DRSC id": "DRSC25309", "mitotic cells, replicate 1": 12}
{"gene": "HtrA2", "DRSC id": "DRSC16425", "mitotic cells, replicate 1": 8}
{"gene": "HtrA2", "DRSC id": "DRSC28553", "mitotic cells, replicate 1": 4}
{"gene": "CG10195", "DRSC id": "DRSC02026", "mitotic cells, replicate 1": 1}
{"gene": "Ttc26", "DRSC id": "DRSC15591", "mitotic cells, replicate 1": 7}
{"gene": "Ttc26", "DRSC id": "DRSC27237", "mitotic cells, replicate 1": 5}
{"gene": "Tasp1", "DRSC id": "DRSC10495", "mitotic cells, replicate 1": 6}
{"gene": "CG15765", "DRSC id": "DRSC23026", "mitotic cells, replicate 1": 11}
{"gene": "CG15765", "DRSC id": "DRSC29271", "mitotic cells, replicate 1": 7}
